The source of these data is PMC13480958.

B1: Vg-N:GFP:V5:6xHis (Vg amino acids 1-278) (domain or fragment, UniProt Q26366 1-278)
chain: MAVSCPEVMYGAYYPYLYGRAGTSRSFYQYERFNQDLYSSSGVNLAASSSASGSSHSPCSPILPPSVSANAAAAVAAAAHNSAAAAVAVAANQASSSGGIGGGGLGGLGGLGGGPASGLLGSNVVPGSSSVGSVGLGMSPVLSGAAGHSLHSSHRTHAHSLAHAHTHPHSHTHTHTHQTKEEDLIVPRSEAEARLVGSQQHQHHNESSCSSGPDSPRHAHSHSHPLHGGGGATGGPSSAGGTGSGGGDGGGTGAIPKNLPALETPMGSGGGGLAGSGQ
B2: Vg-Sd-binding:GFP:V5:6xHis (Vg amino acids 279-335) (domain or fragment, UniProt Q26366 279-335)
chain: GQAQYLSASCVVFTNYSGDTASQVDEHFSRALNYNNKDSKESSSPMSNRNFPPSFWN
B3: Vg-C:GFP:V5:6xHis (Vg amino acids 336-453) (domain or fragment, UniProt Q26366 336-453)
chain: SNYVHPIPAPTHHQVSDLYGTATDTGYATDPWVPHAAHYGSYAHAAHAHAAHAHAYHHNMAQYGSLLRLPQQYASHGSRLHHDQQTAHALEYSSYPTMAGLEAQVAQVQESSKDLYWF
B4: Vg:V5:6xHis (Vestigial) (protein, UniProt Q26366 1-453)
chain: MAVSCPEVMYGAYYPYLYGRAGTSRSFYQYERFNQDLYSSSGVNLAASSSASGSSHSPCSPILPPSVSANAAAAVAAAAHNSAAAAVAVAANQASSSGGIGGGGLGGLGGLGGGPASGLLGSNVVPGSSSVGSVGLGMSPVLSGAAGHSLHSSHRTHAHSLAHAHTHPHSHTHTHTHQTKEEDLIVPRSEAEARLVGSQQHQHHNESSCSSGPDSPRHAHSHSHPLHGGGGATGGPSSAGGTGSGGGDGGGTGAIPKNLPALETPMGSGGGGLAGSGQGQAQYLSASCVVFTNYSGDTASQVDEHFSRALNYNNKDSKESSSPMSNRNFPPSFWNSNYVHPIPAPTHHQVSDLYGTATDTGYATDPWVPHAAHYGSYAHAAHAHAAHAHAYHHNMAQYGSLLRLPQQYASHGSRLHHDQQTAHALEYSSYPTMAGLEAQVAQVQESSKDLYWF

No constants are given. Whether binding was seen depends on the method and setting. In cells and extracts the contact can be indirect. A result given as binding can be weak or reduced; the word gives no strength. Sequences can lack the tags named with a protein.

The experiment deals with 3xFLAG:Atro (Atrophin) (Drosophila). Briefly: co-IP; lysates (RIPA buffer) of S2 cells co-transfected with the two proteins; 3xFLAG:Atro precipitated with anti-FLAG (DYKDDDDK Fab-Trap) agarose beads, 1 h; western blot with anti-V5 or anti-Myc.
For B1, the binding entry is on record as “binds weakly”.

With B2, the binding result is given as “no binding”. The value for B3 was “binds”; that for B4 was “binds”.
